Reference: patent publication US8912139B2, “Peptide compositions and methods for treating lung injury, asthma, anaphylaxis, angioedema, systemic vascular permeability syndromes, and nasal congestion” (The Board of Trustees of the University of Illinois, priority 2011, dated 2014)
Entries after “also recorded” stand apart in the source; their conditions may differ. At least one peptide structure holds a part that was inferred or is arguable (an end, a ring closure or a residue). Peptide text beside a SMILES is read from it.

System: LPS-induced sepsis
Assay: Survival in LPS-induced murine model of sepsis
Assay type: in vivo, mice
Protocol: (n=11-15 mice/group, p<0.001 AP-IP3R3 vs control treatment (AP control) by ANOVA. Mice were anesthetized prior to retro-orbital i.v. injection of IP3R3 with a mixture of ketamine, 10 mg/ml; xylazine, 0.25 mg/ml and acepromazine, 0.25 mg/ml.
CD-1 mice treated with indicated doses of IP3R3 peptide were i.p. injected with LPS at LD80 dose (50 mg/kg LPS) and were monitored for 5 days. Survival rate (%) was plotted vs. peptide dose in logarithm scale. The sigmoidal dose-response curve was fitted to the data points. n=10 mice/group. Mice were anesthetized prior to retro-orbital injection of peptide with 2.5% isoflurane in room air in an anesthesia induction chamber. Anesthesia was maintained during i.v. injection using a specially designed rodent facemask with a coaxial tube (Harvard Apparatus, AH 72-3026).
Male CD1 mice were challenged by intraperitoneal (i.p.) injection of LD90 doses of LPS. The experimental and control groups received retro-orbital, intravenous (i.v.) injection of EBIN attached to the C-terminus of cell permeant antennapedia peptide (AP) or AP alone at a concentration of 1 microM/kg. Mice were injected tree times, 30 minutes prior to and 1 hr and 24 hrs after LPS administration. Mice were anesthetized prior to retro-orbital injection with a mixture of ketamine (10 mg/ml), xylazine (0.25 mg/ml), and acepromazine (0.25 mg/ml).
FIG. 19 compares the effect of pre- and post treatment with EBIN (SEQ ID NO: 3) on lethality from LPS-induced sepsis. […] Male CD1 mice were challenged by intraperitoneal (i.p.) injection of LD90 doses of LPS. […]
The pharmacological effect of IP3R3 peptide was tested in LPS-induced murine model of sepsis. Male CD1 mice were challenged by intraperitoneal injection (i.p.) of LPS (30 mg/kg body weight) and infiltration of neutrophils in lung, a measure of lung inflammation was determined. […] Furthermore, it was determined whether IP3R3 peptide protects from polymicrobial sepsis induced by cecal ligation and puncture (CLP). […]
The effect of EBIN on mortality rate from LPS-induced sepsis was determined. […]

[1] = LPS LD80 dose-response, doses 0.01-10 μM per kg

Question: What does the source list for CC[C@H](C)[C@H](NC(=O)[C@H](C)NC(=O)[C@@H](NC(=O)[C@@H]1CCCN1C(=O)[C@@H](NC(=O)[C@H](CCC(=O)O)NC(=O)[C@@H](NC(=O)[C@H](Cc1c[nH]c2ccccc12)NC(=O)[C@H](CC(C)C)NC(=O)[C@H](CCCNC(=N)N)NC(=O)[C@H](C)NC(=O)[C@H](Cc1ccccc1)NC(=O)[C@@H](N)CCCCN)[C@@H](C)O)[C@@H](C)CC)[C@@H](C)O)C(=O)N[C@H](C(=O)O)[C@@H](C)O [IP3R3 peptide, KFARLWTEIPTAIT] (H-KFARLWTEIPTAIT-OH)?
Answer: survival / mortality, LD90 (LD80) LPS challenge (50 mg/kg LPS i.p., peptide i.v. 30 minutes prior to and 1 hr after LPS, vs AP control): marked improvement in survival rate; also recorded: mortality reduction; dose at which improvement of survival rate starts [1]: 0.033 µM/kg; dose of maximal efficacy on survival [1]: 1 µM/kg
